Results are given in words; binding and its absence hold for the method and conditions named. Binding seen in cells or lysates may run through a third protein. Some binding calls cover weakened binding; strength is not graded here. Tags and fused reporters may be left off the sequences shown.
Target: T1, GST-ELMO-NT (GST fusion protein containing the N-terminal RhoG-binding domain of ELMO2, amino acids 1-362) (UniProt Q96JJ3)
T1 sequence: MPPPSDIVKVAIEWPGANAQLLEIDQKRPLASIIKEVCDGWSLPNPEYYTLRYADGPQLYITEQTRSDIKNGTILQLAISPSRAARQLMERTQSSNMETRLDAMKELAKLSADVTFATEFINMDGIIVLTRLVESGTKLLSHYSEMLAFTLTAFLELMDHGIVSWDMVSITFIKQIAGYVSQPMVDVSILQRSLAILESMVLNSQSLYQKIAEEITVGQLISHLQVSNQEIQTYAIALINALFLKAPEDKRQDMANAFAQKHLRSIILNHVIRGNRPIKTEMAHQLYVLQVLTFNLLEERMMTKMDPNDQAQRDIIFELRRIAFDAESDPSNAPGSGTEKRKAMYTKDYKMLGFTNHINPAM
Test: pull-down; 500 mg (so in the source) of SNB19 lysate supernatant incubated with 20 ug GST-ELMO-NT and 10 ul GST beads, 1 hour, 4°C; lysis buffer 50 mM Tris-HCl pH 7.5, 100 mM NaCl, 10 mM MgCl2, 1% Triton X-100, 10% glycerol, 1 mM DTT; bound RhoG detected by western blot; cells serum starved 24 hours, then untreated or stimulated with HGF (25 ng/ml) or EGF; only the target purified

Protein sequences, listed by entry. Tags and fused reporters are not part of them.
UniProt P84095: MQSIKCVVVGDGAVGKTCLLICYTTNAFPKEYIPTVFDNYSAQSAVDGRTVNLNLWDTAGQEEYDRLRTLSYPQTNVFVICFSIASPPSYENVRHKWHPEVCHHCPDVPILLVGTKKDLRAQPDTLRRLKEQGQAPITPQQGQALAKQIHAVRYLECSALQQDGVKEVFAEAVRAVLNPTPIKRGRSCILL

- binding: binds
Substance: RhoG small GTPase (from UniProt P84095 1-191)

Reference: PMC3557187
